Reference: PMC12003902
These are yes or no findings as the source states them, for the method shown. In cells and extracts the contact can be indirect. A yes stands for co-enrichment or nearness to the bait. Other partners may have been found. No binding means not detected with the bait.

Biological target: dense granule protein 12 (GRA12), endogenously C-terminally HA-tagged (RH GRA12-HA) (Toxoplasma gondii)
Assay: affinity purification with mass spectrometry; anti-HA agarose beads, overnight 4 °C; lysates of PWD/PhJ BMDMs treated 24 h with 10 U/ml mIFNγ and infected 24 h with RH GRA12-HA or RH ΔKU80 (control), triplicate; IP buffer 10 mM Tris, 150 mM NaCl, 0.5 mM EDTA, 0.4% NP40, pH 7.5

B1: GRA2 (protein, UniProt P13404 24-185)
chain: AEFSGVVNQGPVDVPFSGKPLDERAVGGKGEHTPPLPDERQQEPEEPVSQRASRVAEQLFRKFLKFAENVGHHSEKAFKKAKVVAEKGFTAAKTHTVRGFKVAKEAAGRGMVTVGKKLANVESDRSTTTTQAPDSPNGLAETEVPVEPQQRAAHVPVPDFSQ
- binding: no binding
